AC50 data for 63 compounds are collected here from PubChem BioAssay AID493014 (National Center for Advancing Translational Sciences (NCATS), 2011).

The nature of the assay: qHTS Assay to Find Inhibitors of Chronic Active B-Cell Receptor Signaling. The settings on record: ABC-DLBCL IkBa-CBG/CBR reporter, luminescence ratio (green luciferase fused to IkBa over red control in TMD8 lymphoma cells), 4 h. An outline of the steps:
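Compounds up to 46 uM were incubated four hours with TMD8 cells whose green CBG68 luciferase is fused to IkappaBalpha; red CBR luminescence normalised the signal, and concentration-effect curves were fitted to fusion, red and ratio data.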
(qHTS replaces the single test concentration by a dilution series.)

[1] abbreviates: measured here: CBR red luminescence, cell number.
Where [2] appears, read: measured here: IkBa-CBG green luminescence.

Broadly, the AC50 is the concentration at which the activity in the assay is half-maximal.

Molecules are shown by their SMILES. Several values for one entry are separate records, joined by “and”; a condition that tells them apart may be missing. Identical values can stand only once. Some of the results follow. Further columns of the screen follow, without active or inactive calls. Most of these compounds were active or inconclusive in the main read-out, so they are no random draw. Words in brackets tell the shape of the fitted curve; partial curves, single points and poor fits give uncertain potencies.

Turning to `CCOc1cc(/C=C2/SC(=S)N(Cc3ccccc3)C2=O)ccc1O`, the AC50 under setting [1] is 11.2 µM [rising, partial curve, poor fit].
The same measure, in the same setting: with `CNC(=S)N(C)/N=C1/C(=O)N(Cc2c(Cl)cccc2Cl)c2ccccc21` the figure was 16.4 µM [rising, partial curve].
On the same count and under the same terms, with `C=CCOn1c(=O)c(-c2cccs2)[n+]([O-])c2ccccc21` the figure was 0.291 µM [falling, full curve].
`C[C@H](CO)N1C[C@H](C)[C@H](CN(C)Cc2ccncc2)Oc2ccc(NC(=O)Nc3ccc(C(F)(F)F)cc3)cc2CC1=O`: under setting [2], the concentration at half-maximal activity (AC50) was 29.1 µM [falling, single point].
For the compound `CSC1=N/C(=C\c2ccc(C)s2)C(=O)S1`, the half-maximal activity concentration (AC50) under setting [1] is 2.91 µM [rising, full curve, poor fit].
On the same count and under the same terms, with `CC(C)C(=O)N1CCN(c2ccccc2N)CC1` the figure was 10 µM [falling, partial curve, poor fit].
On the same count and under the same terms, with `Cc1ccc2oc(-c3cccc(NC(=S)NC(=O)/C=C/c4ccco4)c3)nc2c1` the figure was 10 µM [rising, partial curve, poor fit]; with `CCOc1ccccc1NC(=O)c1cccc(N2C(=O)CCC2=O)c1`, 10 µM [falling, partial curve, poor fit]; with `Cc1nc(C(F)(F)F)ccc1C(=O)NN1CCOCC1`, 22.4 µM [rising, partial curve, poor fit].
Same read-out and setting: with `C/C(=C\C(=O)c1cccnc1)Nc1ccc(O)cc1` the figure was 8.2 µM [falling, single point]; with `O=c1[nH]c(Cc2ccccc2)nc2c1oc1ccccc12`, 5.8 µM [rising, single point].
On to `COC(=O)Nc1ccc2c(c1)ncn2C1CCCCC1`, for which the AC50 under setting [1] is 1 µM [rising, full curve, poor fit].
On the same count and under the same terms, with `FC(F)(F)c1ccc(N/N=C/c2cccnc2)nc1` the figure was 11.2 µM [falling, single point].
Same read-out and setting: as for `C#C[C@]1(O)CC[C@H]2[C@@H]3CCC4=CC(=O)CC[C@@H]4[C@H]3CC[C@@]21CC`, the figure is 5.62 µM [rising, single point]; as for `COc1nc(N=C(N)N)nc2c(C)cccc12`, 0.355 µM [falling, full curve, poor fit].
`O=Cc1ccc(O)c2ncccc12`: the AC50 is 0.355 µM [falling, partial curve, poor fit] under setting [1] and 0.631 µM [falling, full curve, poor fit] under setting [2].
As to `CC1Cc2ccccc2N1S(=O)(=O)c1cnc[nH]1` (configuration not stated), the half-maximal activity concentration (AC50) under setting [1] was 6.51 µM [rising, partial curve, poor fit].
Turning to `NC(=O)c1oc2ccccc2c1NC(=O)C1COc2ccccc2O1` (configuration not stated), under setting [2], the AC50 was 0.126 µM [rising, full curve, poor fit].
Regarding `Cc1cc(N(C)Cc2ccccc2)nc2cc(O)ccc12`, the concentration at half-maximal activity (AC50) under setting [1] is 6.31 µM [rising, single point].
Take `CC(C)c1ccc(N2C(=O)CC(Sc3ncn[nH]3)C2=O)cc1` (configuration not stated): under setting [1], the AC50 is 8.2 µM [falling, partial curve, poor fit].
As for `Cc1ccc(NC(=O)COC(=O)c2ccc(Cl)nc2)cc1S(=O)(=O)N1CCCCC1`, the concentration at half-maximal activity (AC50) under setting [1] is 8.2 µM [rising, partial curve, poor fit].
Same read-out and setting: with `Cn1c(=O)c(C(=O)NNC(=O)c2ccccc2Cl)c(O)c2ccccc21` the figure was 4.47 µM [falling, full curve].
On the same count and under the same terms, with `O=C(CSc1nc2ccc(Cl)cc2[nH]1)c1cccs1` the figure was 0.112 µM [rising, full curve, poor fit]; with `COc1ccc(N(CC(=O)N2CCN(c3cccc(C)c3)C(C)C2)S(=O)(=O)c2c(C)n[nH]c2C)cc1` (configuration not stated), 31.6 µM [falling, single point]; with `N#C/C(=C\c1ccc(O)c(O)c1)C(=O)NCc1ccccc1`, 23.1 µM [falling, single point].
For `O=C(COc1ccccc1)n1nc(-c2ccc(Cl)cc2)nc1NCc1ccco1`, the AC50 under setting [1] was 29.1 µM [falling, single point].
The same measure, in the same setting: with `N#C/C(=C(/O)c1ccco1)c1nc2ccccc2s1` the figure was 1.58 µM [falling, full curve, poor fit] and 2.82 µM [falling, full curve, poor fit].
The same measure, in the same setting: with `Cc1cc2c(cc1C)N(C(=O)CSC1=NCCS1)C(C)(C)c1ssc(=S)c1-2` the figure was 20.6 µM [falling, single point].
For `C/C(=N\Nc1ccccn1)c1ccc(C(C)C)cc1`, the AC50 is 12.6 µM [rising, partial curve, poor fit] under setting [1] and 17.8 µM [falling, single point] under setting [2].
Take `COc1ccccc1C(=O)Nc1ccc(C)cc1C(=O)c1ccccc1`: the AC50 under setting [1] is 14.6 µM [rising, partial curve].
Still for that read-out and setting: as for `O=S(=O)(Nc1cc(F)ccc1F)c1cccc2nsnc12`, the figure is 6.31 µM [rising, single point]; as for `COc1ccccc1NC(=O)CSc1nc(O)cc(=O)n1-c1ccccc1OC`, 4.47 µM [falling, full curve].
As to `O=C1Nc2c(Br)cccc2C1=O`, the AC50 under setting [1] was 20.6 µM [rising, single point] and the AC50 under setting [2] was 29.1 µM [falling, single point].
Take `CCCCSc1nc(C)cc(SCC(=O)N/N=C/c2ccccc2)n1`: the AC50 under setting [1] is 4.47 µM [rising, full curve].
On the same count and under the same terms, as for `COc1ccc(CCNC(=S)NCc2ccc(Cl)c(Cl)c2)cc1OC`, the figure is 14.1 µM [falling, single point].
The same measure, in the same setting: as for `CCN1C(=O)/C(=C/C=C2/SCCN2C)SC1=S`, the figure is 35.5 µM [rising, partial curve, poor fit]; as for `O=C(CSc1ccc(F)cc1)N1CCC(c2nc3ccccc3s2)CC1`, 35.5 µM [falling, single point].
On the same count and under the same terms, as for `CCCCS(=O)(=O)c1sc2nc(C)cc(C)c2c1N`, the figure is 7.31 µM [rising, partial curve, poor fit]; as for `O=c1oc2c(O)cccc2cc1-c1nc2ccccc2[nH]1`, 5.01 µM [falling, full curve]; as for `Cc1ccccc1C(=O)Nc1cccc(-c2ccc(N3CCOCC3)nn2)c1`, 6.51 µM [rising, single point].
For the compound `C/C(=N\NC(=O)c1cccc(N2CCCC2=O)c1)c1ccc(N)cc1`, under setting [1], the AC50 was 35.5 µM [falling, single point].
On the same count and under the same terms, as for `O=C(c1c(F)cccc1F)N1CCCC(c2nc(-c3ccc(Cl)cc3)no2)C1` (configuration not stated), the figure is 0.708 µM [rising, full curve, poor fit].
As to `C=CC[C@]12CCc3sccc3C1N(c1ccc(C(=O)OCC)cc1)C2=O` (some centres not stated), the concentration at half-maximal activity (AC50) was 23.1 µM [falling, single point] under setting [1] and 18.4 µM [rising, partial curve, poor fit] under setting [2].
Take `COc1ccc(-c2noc(CCCC(=O)Nc3cccnc3)n2)cc1OC`: the AC50 under setting [1] was 2 µM [rising, partial curve, poor fit].
Still for that read-out and setting: with `CC(=O)OCC(=O)[C@H]1CC[C@H]2[C@@H]3CCC4=CC(=O)CC[C@]4(C)[C@H]3CC[C@]12C` the figure was 7.31 µM [rising, partial curve].
On the same count and under the same terms, as for `COc1ccccc1C(=O)Nc1nnc(-c2ccco2)s1`, the figure is 1.84 µM [falling, full curve]; as for `CN(C)c1ccc(/C=N/NC(=O)c2ccccn2)cc1`, 1.58 µM [falling, full curve].
As to `N/C(=N\OC(=O)c1ccc2ccccc2c1)c1ccccn1`, the concentration at half-maximal activity (AC50) under setting [1] was 5.01 µM [falling, partial curve].
Consider `O=C(CCCc1nc2ccccc2s1)NCc1ccccc1`, for which, under setting [1], the AC50 is 0.651 µM [rising, partial curve, poor fit].
On the same count and under the same terms, with `CCNC(=O)/C(C#N)=C/c1c(N2CCN(Cc3ccc4c(c3)OCO4)CC2)nc2c(C)cccn2c1=O` the figure was 29.1 µM [falling, single point]; with `O=[N+]([O-])c1ccc2nc(-[n+]3c(-c4ccccc4)cc(-c4ccccc4)cc3-c3ccccc3)[nH]c2c1`, 2.91 µM [rising, single point]; with `O=C(CCCN1C(=O)CCC1=O)Nc1ccc2c(c1)OCO2`, 23.1 µM [rising, single point].
Same read-out and setting: as for `CCN(C(=O)COC(=O)c1cc(=O)c2ccccc2o1)c1c(N)n(Cc2ccccc2)c(=O)[nH]c1=O`, the figure is 0.231 µM [rising, full curve, poor fit].
Still for that read-out and setting: as for `CN1CC(c2ccccc2)C(c2ccc(Cl)cc2)=N1` (configuration not stated), the figure is 13 µM [rising, partial curve, poor fit].
Take `N#C/C(=C\c1cn(-c2ccccc2)nc1-c1ccccc1)S(=O)(=O)c1ccccc1`: under setting [1], the AC50 was 7.31 µM [falling, partial curve, poor fit].
Same read-out and setting: as for `N#CC(=NCc1cccnc1)C1=C(O)c2ccccc2C1=O`, the figure is 35.5 µM [falling, single point]; as for `Cc1nc(-c2cc(-c3ccc(Cl)cc3)no2)cs1`, 3.16 µM [falling, full curve, poor fit].
On the same count and under the same terms, with `CCOC(=O)NC(CC(=O)O)c1ccc(OC)cc1` (configuration not stated) the figure was 3.98 µM [rising, single point]; with `Cc1ccc(NC(=O)c2ccc3c(c2)C(=O)N(Cc2cccnc2)C3=O)c(C)c1`, 11.2 µM [rising, partial curve]; with `CC(C)CCNC(=O)NC(=O)COC(=O)c1cc(S(=O)(=O)N2CCOCC2)ccc1N1CCCCC1`, 10.3 µM [falling, single point].
Take `Cc1cccc(N=Nc2c(C)nn(-c3ccccc3)c2N)c1C`: under setting [1], the half-maximal activity concentration (AC50) was 2.59 µM [rising, full curve, poor fit].
On the same count and under the same terms, as for `CCCCNS(=O)(=O)c1ccc2nc(-c3cccs3)cc(C(=O)NCC(OC)OC)c2c1`, the figure is 6.51 µM [rising, single point]; as for `NS(=O)(=O)c1ccc(CNC(=O)c2cc(=O)c3cc(Cl)ccc3o2)cc1`, 0.501 µM [rising, partial curve, poor fit].
